Test results published in PMC10207973.
These are yes or no findings as the source states them, for the method shown. Binding seen in cells or lysates may run through a third protein. Some entries that bind do so weakly or less than the wild type.

By UniProt entry, the sequences of proteins in these tests, tags left out.
UniProt Q3MHD2: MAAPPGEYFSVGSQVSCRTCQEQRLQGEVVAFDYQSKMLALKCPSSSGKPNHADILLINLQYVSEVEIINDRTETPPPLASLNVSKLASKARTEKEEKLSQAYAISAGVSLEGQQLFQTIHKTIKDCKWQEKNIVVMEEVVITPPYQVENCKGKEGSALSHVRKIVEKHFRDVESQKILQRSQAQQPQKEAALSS
UniProt P35222: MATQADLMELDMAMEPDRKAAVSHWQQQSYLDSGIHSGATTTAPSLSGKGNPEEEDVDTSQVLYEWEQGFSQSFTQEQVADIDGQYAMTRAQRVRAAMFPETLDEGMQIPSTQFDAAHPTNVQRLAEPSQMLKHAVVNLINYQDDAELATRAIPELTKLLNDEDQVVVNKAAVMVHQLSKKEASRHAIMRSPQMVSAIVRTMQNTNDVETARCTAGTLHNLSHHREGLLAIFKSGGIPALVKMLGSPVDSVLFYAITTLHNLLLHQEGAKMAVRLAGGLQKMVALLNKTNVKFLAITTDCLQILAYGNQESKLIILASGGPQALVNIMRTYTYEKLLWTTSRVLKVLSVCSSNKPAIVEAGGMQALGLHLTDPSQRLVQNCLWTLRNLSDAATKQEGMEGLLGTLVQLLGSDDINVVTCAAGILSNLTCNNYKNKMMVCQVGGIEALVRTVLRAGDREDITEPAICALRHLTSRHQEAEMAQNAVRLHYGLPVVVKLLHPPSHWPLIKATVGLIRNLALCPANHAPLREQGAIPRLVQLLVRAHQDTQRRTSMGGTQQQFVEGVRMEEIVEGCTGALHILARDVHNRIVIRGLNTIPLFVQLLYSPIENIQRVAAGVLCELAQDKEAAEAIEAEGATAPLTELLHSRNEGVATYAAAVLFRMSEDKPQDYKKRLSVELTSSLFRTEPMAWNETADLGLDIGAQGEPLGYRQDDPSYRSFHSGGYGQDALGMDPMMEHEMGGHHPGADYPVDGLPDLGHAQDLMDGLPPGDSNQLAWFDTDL
UniProt Q9UJU2: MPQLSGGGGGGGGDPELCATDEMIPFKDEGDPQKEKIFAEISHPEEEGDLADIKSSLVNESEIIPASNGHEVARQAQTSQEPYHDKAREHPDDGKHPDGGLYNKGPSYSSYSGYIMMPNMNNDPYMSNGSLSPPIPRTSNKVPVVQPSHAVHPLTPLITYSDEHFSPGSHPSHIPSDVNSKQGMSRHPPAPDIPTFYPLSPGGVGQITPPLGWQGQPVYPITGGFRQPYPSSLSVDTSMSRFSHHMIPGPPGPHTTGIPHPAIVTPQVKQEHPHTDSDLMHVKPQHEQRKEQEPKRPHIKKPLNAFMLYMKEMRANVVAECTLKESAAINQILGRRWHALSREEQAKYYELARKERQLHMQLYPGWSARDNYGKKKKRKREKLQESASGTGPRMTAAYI
UniProt P36402: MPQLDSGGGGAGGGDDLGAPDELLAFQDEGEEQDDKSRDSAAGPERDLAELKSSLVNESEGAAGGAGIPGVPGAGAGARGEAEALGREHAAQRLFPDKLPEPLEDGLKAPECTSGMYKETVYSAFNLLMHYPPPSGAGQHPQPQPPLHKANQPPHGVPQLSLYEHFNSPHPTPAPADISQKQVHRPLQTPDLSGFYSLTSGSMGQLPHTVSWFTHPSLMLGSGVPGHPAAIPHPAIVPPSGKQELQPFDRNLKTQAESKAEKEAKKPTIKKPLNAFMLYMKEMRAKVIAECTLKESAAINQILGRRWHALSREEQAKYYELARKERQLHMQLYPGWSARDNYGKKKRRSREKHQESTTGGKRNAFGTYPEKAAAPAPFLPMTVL

How the values were obtained:
[1] = molecular target: Flag-LSM12 (like-Sm protein 12) (UniProt Q3MHD2); test: co-IP; exogenous co-IP: 293T cells transfected with pcDNA3.1-LSM12-Flag + pcDNA3.1-CTNNB1-MYC (control pcDNA3.1-Flag + pcDNA3.1-CTNNB1-MYC), lysed after 48 h, immunoprecipitation with anti-flag and anti-cMYC antibodies, Western blot
[2] = molecular target: LSM12 (like-Sm protein 12), endogenous (human (endogenous in SW480)) (UniProt Q3MHD2); test: co-IP; endogenous co-IP: SW480 lysate precleared with protein A/G magnetic beads, anti-LSM12 antibody or IgG 12 h at 4°C, protein A/G beads 4 h, Western blot
[3] = molecular target: CTNNB1 (β-Catenin), endogenous (human (endogenous in SW480)) (UniProt P35222); test: co-IP; endogenous co-IP with CTNNB1 antibody, Tet-On-shLSM12 cells with or without DOX (LSM12 knockdown); protein A/G beads, Western blot; cells SW480 by the methods, 293T-Tet-On-shLSM12 by the legend

binding [3]	Substance	other results
	Myc-CTNNB1 (β-Catenin) (from UniProt P35222 1-781)	binding [1]: binds
	CTNNB1 (β-Catenin), endogenous (from UniProt P35222 1-781)	binding [2]: binds
binds	LEF1 (lymphoid enhancer factor), endogenous (from UniProt Q9UJU2 1-399)	
binds	TCF1 (T cell-specific transcription factor), endogenous (from UniProt P36402 1-384)	
